Results: US20060293343A1, “Pyrimidine derivatives” (Asahi Kasei Pharma Corporation, priority 2005, published 2006)

Columns and labels:
[1] = tested on: rabbit gastric gland cells; assay: Action on gastric acid secretion ability (in vitro), 14C-aminopyrine uptake in gastric gland cells; format: cell-based; settings: EC50 of gastric acid secretion ability / IC50 of suppression of TNF-α production
Description: Gastric acid secretion ability (as an index of the side effect) was tested according to the methods by BergLindh and Obrink (Acta Physiol. Scand. 97:401-414, 1976) and Sack and Speney (Am. J. Physiol. 243:G313-G319, 1982).
Gastric gland cells were prepared by collagenase treatment using male rabbit (Japanese white strain, manufactured by Oriental Yeast Co.).
The test compound, ^14C-aminopyrine (1.0 nmol/mL; 0.1 μCi/nmol) and histamine (0.3 to 1.0 μM) were incubated for a given time period, and gastric gland cell pellets obtained after centrifugation and washing were lysed with 100 μL of 1N-KOH. The lysate was filled in a scintillation vial containing a scintillation cocktail (manufactured by Perkin Elmer Co.) to measure the radioactivity. The gastric acid secretion action by the test compound was calculated as EC50, and the ratio of the activity relative to IC50 of suppression of TNF-α production described in Test Example 2 (degree of dissociation A) was determined from the following equation. The larger degree of dissociation A is more preferable. The results in Table 10 represent that secretion of the gastric acid ability(EC50) was lower activity in the compound of the invention, salts thereof or prodrugs thereof as compared with the suppression effect of TNF-α production(IC50). Ex. No. in Table 10 denotes the example No.
Degree of dissociation A=EC50 of gastric acid secretion ability/IC50 of suppression of TNF-α production

C3H/He mouse = assay: Gastric emptying test of mouse (in vivo); settings: IC50 (mg/kg) / ED50 (mg/kg)
Description: C3H/He mouse (manufactured by Japan SLC Co., male) fasted for 21 to 24 hours but allowed free access to water, was used as an experimental animal. A desired concentration of the test sample was suspended in 0.5% methyl cellulose solution. The weight of the mouse was measured, and the test compound solution was orally administered at a dosage of 10 mL/kg while only 0.5% methyl cellulose solution was administered to the reference group. One group contained 5 mice. A 1.5% methyl cellulose solution containing 0.05% phenol, red was used as a test meal solution. The test compound was administered, and 0.2 ml of the test meal was orally administered at 60 minutes thereafter. […] A 10% trichloroacetic acid solution (0.5 mL) was added to 5 mL of the supernatant, which was further centrifuged to remove proteins. A solution prepared by adding 125 μL of 2 N NaOH to the supernatant (1 mL) obtained by centrifugation was measured with a spectrophotometer (550 nm), and inhibition of transfer from the stomach to the small intestine was expressed by IC50 (mg/kg).

Compound	Degree of dissociation A [1]	gastric emptying IC50 times higher compared with suppression of TNF-α production ED50 (C3H/He mouse) [times]
CCc1nc(-c2cccs2)nc(Nc2ccc(CC(=O)O)cc2)c1CC [Example 84]	3	–
CCc1nc(-c2ccsc2)nc(Nc2ccc(CC(=O)O)cc2)c1CC [Example 58]	2	–
CCc1nc(-c2ccsc2)nc(Nc2ccc(C(=O)O)cc2)c1CC [Example 57]	11	–
CCc1c(C)nc(-c2ccc(Br)s2)nc1Nc1ccc(CC(=O)O)cc1 [Example 148]	15	7.1
CCc1c(C)nc(-c2ccc(SC)s2)nc1Nc1ccc(CC(=O)O)cc1 [Example 78]	225	–
CCc1nc(-c2ccsc2)nc(Nc2ccc3cc(C(=O)O)ccc3c2)c1CC [Example 59]	3	–
C=CCc1c(CC)nc(-c2ccsc2)nc1Nc1ccc2cc(C(=O)O)ccc2c1 [Example 17]	71	4.7
CCc1nc(-c2cccs2)nc(Nc2ccc(C(=O)O)cc2)c1CC [Example 83]	4	–
